Measurements taken from PubChem BioAssay AID1439 (NMMLSC, 2008).
Among all 220,000 compounds or so, about 770 (0.35%) were called active. The shares of active, inactive and inconclusive entries below differ from those in the screen. No stated cut-off is given here; in the data, active means binding response below about 49% or above about 150%; inconclusive means no clear call, values can overlap the other calls; inactive means in between.

Protein sequences, listed by entry. Tags and fused reporters are not part of them.
UniProt P09471, whole entry, looked up: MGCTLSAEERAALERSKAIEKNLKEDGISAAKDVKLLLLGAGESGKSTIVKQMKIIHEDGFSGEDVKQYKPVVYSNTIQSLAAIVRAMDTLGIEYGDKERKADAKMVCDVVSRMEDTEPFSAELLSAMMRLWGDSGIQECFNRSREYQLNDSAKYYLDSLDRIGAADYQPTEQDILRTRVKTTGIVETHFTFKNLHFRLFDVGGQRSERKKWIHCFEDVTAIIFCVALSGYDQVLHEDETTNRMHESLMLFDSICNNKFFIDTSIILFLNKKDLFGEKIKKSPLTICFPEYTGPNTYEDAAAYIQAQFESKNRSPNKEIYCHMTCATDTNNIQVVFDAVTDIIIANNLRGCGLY

Target: Guanine nucleotide-binding protein G(o) subunit alpha (Homo sapiens) (UniProt P09471)
Test: RGS7-Galphao binding modulators, primary screen, biochemical, multiplexed bead flow cytometry (AID 1439);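 further: fluorescent Galphao held in activated GDP-AlF4 state binding bead-coupled RGS7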
Conditions: at 10 µM, actives lie on both sides

Row | SMILES | binding response (% of control)
1 | CCOc1ccccc1NC(=O)NC(=O)N(C)S(=O)(=O)c1ccc(C)cc1 | inactive: 105%
2 | COC(=O)c1ccccc1NC(=O)CSc1nc2ncccc2[nH]1 | inconclusive: 71.5%
3 | Cc1cc(=O)oc2cc(OCc3ccc(C(=O)OCC(=O)Nc4ccc(N(C)C)cc4)cc3)ccc12 | inconclusive: 87.8%
4 | O=[N+]([O-])c1ccc(OCCO)nc1 | inconclusive: 100%
5 | CCCCC(=O)Nc1ccc(C(=O)NCCc2ccc(S(N)(=O)=O)cc2)cc1 | inconclusive: 99.6%
6 | CCCCN(C)c1c(N2CCC(C(=O)OCC)CC2)c(=O)c1=O | inconclusive: 120%
7 | Nc1c(C(=O)NCc2ccc3c(c2)OCO3)nnn1Cc1ccc(Br)cc1 | inconclusive: 85.4%
8 | CCc1ccccc1NNC(=O)c1snnc1C | inconclusive: -59%
9 | Cc1nn(C)c2c(=O)c(=O)c2n(C)[nH]1 | inconclusive: 102%
10 | Clc1ccc(-c2ccccc2)nn1 | inconclusive: 225%
11 | COc1ccc(NC(=S)NNC(=S)Nc2cccc(C(F)(F)F)c2)cc1 | inconclusive: -17.5%
12 | CC(=O)OCC(OC(C)=O)C(OC(C)=O)C(OC(C)=O)C(=O)Nc1cccc(C)c1 (stereo unspecified) | inconclusive: 141%
13 | CC1=C(C(=O)Nc2ccccc2C(F)(F)F)C(c2sccc2C)NC(=S)N1 (stereo unspecified) | inconclusive: 104%
14 | O=C(c1ccc(Cl)nc1)c1cccs1 | inconclusive: 104%
15 | COc1ccc(/C=C(\C#N)C(=O)Nc2cc(C)c(Cl)cc2OC)cc1O | inconclusive: 28.7%
16 | Fc1ccc(Nc2c3c(nc4ccccc24)CCC3)cc1 | inconclusive: 97.3%
17 | COc1cc(OC)cc(C(=O)Nn2cnnc2)c1 | inconclusive: 108%
18 | O=C(c1ccccn1)N1CCN(S(=O)(=O)c2ccccc2)CC1 | inconclusive: 90.5%
19 | CCOc1ccc2nc(N3CCC(C(=O)N4CCN(c5ncccn5)CC4)CC3)sc2c1 | inconclusive: 119%
20 | NNC(=O)C(=O)/C=C1\NC2(CCCC2)Cc2ccccc21 | inconclusive: 137%
21 | Cc1csc(N(C(=O)CCNC(=O)c2ccc([N+](=O)[O-])cc2)c2ccccc2)n1 | inactive: 104%
22 | CCN1CC2=C(OC(N)=C(C#N)C2c2cccs2)/C(=C\c2cccs2)C1 (stereo unspecified) | inactive: 98.5%
23 | Cc1nn2c(NCCN(C)C)c3c(nc2c1-c1ccccc1)CCC3 | inconclusive: 144%

Sorted by number of heavy atoms (largest number first): three of the compounds above
Row | SMILES | binding response (% of control)
12 | CC(=O)OCC(OC(C)=O)C(OC(C)=O)C(OC(C)=O)C(=O)Nc1cccc(C)c1 (stereo unspecified) | inconclusive: 141%
15 | COc1ccc(/C=C(\C#N)C(=O)Nc2cc(C)c(Cl)cc2OC)cc1O | inconclusive: 28.7%
18 | O=C(c1ccccn1)N1CCN(S(=O)(=O)c2ccccc2)CC1 | inconclusive: 90.5%

Next part:

Row | SMILES | binding response (% of control)
24 | c1ccc(Cc2noc(CN3CCCC(CN4CCOCC4)C3)n2)cc1 (stereo unspecified) | inconclusive: 98.8%
25 | COc1ccc(OCc2n[nH]c(=S)n2Cc2ccco2)cc1 | inconclusive: 100%
26 | CCN(CC)S(=O)(=O)c1cccc(C(=O)N/N=C2\CCCC(=O)C2)c1 | inconclusive: 100%
27 | CC12CC3(C)CC(C)(C1)CC(C(=O)NC(=S)N1CCCC1)(C2)C3 | inactive: 93.1%
28 | Cc1ccc(CSc2nnc(CCNC(=O)OC(C)(C)C)o2)cc1 | inconclusive: -500%
29 | COc1ccc(OC)c(NC(=O)Nc2nnc(N3CCCCC3C)s2)c1 (stereo unspecified) | inconclusive: 95.7%
30 | CCN(c1ccccc1)P(=O)(Nc1ccccc1)Nc1ccccc1 | inconclusive: 111%
31 | CC1CC(OC(=O)C(O)c2ccccc2)CC(C)(C)N1C (stereo unspecified) | inconclusive: 117%
32 | CCC(Cc1ccccc1)NC(=O)C1=C(C)C(=O)OC12CCC(C)CC2 (stereo unspecified) | active: 31.9%
33 | CCN(CC)c1ncc(C#N)c(N)n1 | inconclusive: 56.4%
34 | CCN(CC)c1ccc(/C=N/NC(=O)c2ccoc2C)c(O)c1 | inconclusive: 88.8%
35 | Cc1ccc(/C=N/n2c(-c3ccc(Cl)cc3)n[nH]c2=S)o1 | inconclusive: 107%
36 | O=C(NCc1cccnc1)c1ccc(COc2ccccc2Br)cc1 | inconclusive: 85%
37 | Cc1ccc(CNCC(=O)Nc2ccc(N3CCOCC3)cc2)cc1 | inconclusive: 206%
38 | O=C(c1ccccn1)N1CCN(c2cccc(C(F)(F)F)c2)CC1 | inconclusive: 103%
39 | CNC(=O)CSc1nnc(C(C)C)n1C | inconclusive: 118%
40 | CC(C)(C)OC(=O)N[C@@H](Cc1ccccc1)C(=O)NCC1CCC(C(=O)O)CC1 (stereo partly specified) | inconclusive: 99.8%
41 | CCCCN(C(=S)Nc1ccc(F)cc1)c1c(N)n(CCC)c(=O)[nH]c1=O | inconclusive: 89.6%
42 | COc1ccc(C2CC(c3cccs3)=NN2c2ccc(F)cc2)cc1OC (stereo unspecified) | inconclusive: 98.9%
43 | CCOc1ccc(/C=N/NC(=O)CNC(=O)c2ccc(S(=O)(=O)N3CCOCC3)cc2)cc1 | inactive: 99%
44 | CCNC(=O)COC(=O)c1[nH]c(C)c(C(=O)OC)c1C | inconclusive: 99.3%
45 | O=c1cc(O)nc[nH]1 | inconclusive: 101%
46 | CC(=O)Nc1nc(C)c(Oc2cccc(C(F)(F)F)c2)c(=O)[nH]1 | inconclusive: 86.5%

Row | SMILES | binding response (% of control)
47 | CCOC(=O)C1C(c2ccc(O)c(OC)c2)NC(=S)NC1(O)C(F)(F)F (stereo unspecified) | inactive: 107%
48 | O=C(OCC(=O)N1CCOCC1)c1ccc2[nH]c3c(c2c1)CCCC3 | inconclusive: 83.2%
49 | CCOC(=O)c1[nH]c2ccccc2c1NC(=O)CCN1CCN(C(=O)OCC)CC1 | inactive: 136%
50 | Cc1oc2cc([N+](=O)[O-])c(O)c([N+](=O)[O-])c2c1C(=O)c1ccc(Cl)cc1 | inconclusive: 72.6%
51 | CC(C)N1CN(c2ccccc2)C(=S)N(c2ccccc2)C1 | inconclusive: 124%
52 | Fc1ccccc1-c1[nH]ncc1-c1nnnn1-c1ccccc1 | inconclusive: 67.8%
53 | N#CCc1cnc2ccccc2n1 | inconclusive: 135%
54 | O=c1sc2ccccc2c(=O)n1Cc1ccccc1F | inconclusive: 135%
55 | Cn1cc(S(=O)(=O)NCc2ccc(Cl)cc2)c(=O)n(C)c1=O | inconclusive: 106%
56 | COc1cc(OC)c(C(=O)NCCCn2ccnc2)cc1OC | inactive: 104%
57 | Cc1ccc(CNc2nc(N)c([N+](=O)[O-])c(NCCO)n2)cc1 | inconclusive: 86.8%
58 | CCOc1ccccc1N1CCN(CC(=O)NCCc2ccc(S(N)(=O)=O)cc2)CC1 | inactive: 103%
59 | COc1ccc(Cl)cc1NC(=O)Cn1c(NCCO)nc2ccccc21 | inconclusive: 95.9%
60 | CSc1cccc(NC(=S)N(CCC(C)C)C(C)c2ccncc2)c1 (stereo unspecified) | inconclusive: 82.7%
61 | C=C(C)C(=O)N1CC2(CC(c3cccc(NC(=O)/C=C\C)c3)=NO2)C[C@H]1C(N)=O (stereo partly specified) | inconclusive: 106%
62 | CCOc1[nH]n(-c2ccccc2)c(=O)c1C=Nc1ccc(OC)cc1 | inconclusive: 116%
63 | O=c1c2c3c(sc2nc(N2CCNCC2)n1-c1cccc(Cl)c1)CCCCC3 | inconclusive: 89.5%
64 | C/C(=N\NC(=O)CCc1ccc(S(=O)(=O)N2CCOCC2)cc1)c1ccc(OC(F)F)cc1 | inconclusive: 91.5%
65 | O=C(Oc1ccc(-c2csnn2)cc1)C1CC1 | inconclusive: 92.9%
66 | Nc1nonc1-n1nnc(C(=O)N/N=C/c2ccccc2Cl)c1CSc1ccccc1 | inconclusive: 105%
67 | CCOC(=O)Cn1cc(C#N)c(=O)[nH]c1=O | inconclusive: 106%
68 | NC(=O)CN1CCN(S(=O)(=O)c2ccc(Cl)cc2)CC1 | inconclusive: 115%
69 | COc1cccc(NC(=O)c2ccc(NC(=O)C3CC(=O)OC34CCCCC4)cc2)c1 (stereo unspecified) | inactive: 98%

Row | SMILES | binding response (% of control)
70 | COc1ccc(NC(=O)c2ccc(-c3nn(C)c(=O)c4ccccc34)cc2)cc1C(N)=O | inconclusive: 87.4%
71 | O=C(/C=C/c1cccc(O)c1)c1ccc(N2CCOCC2)cc1 | inconclusive: 318%
72 | N#C/C(=C(/O)c1cccs1)c1nnc2n1CCCCC2 | inconclusive: 87.7%
73 | COc1ccc(NS(=O)(=O)c2cc(NC(=O)c3cc(=O)c4ccccc4o3)ccc2OC)cc1 | inconclusive: 73.4%
74 | O=C(Nc1cccnc1)c1cccc([N+](=O)[O-])c1 | inconclusive: 105%
75 | Nc1ncnc(Nc2cccc(C(F)(F)F)c2)n1 | inactive: 97.3%
76 | COc1ccc(/C=N/NC(=O)c2cccc(Br)c2)cc1CN1CCOCC1 | inconclusive: 103%
77 | Cc1nc(NS(=O)(=O)c2ccc(Cl)s2)c2c3c(sc2n1)CCCC3 | inconclusive: 123%
78 | O=C1N(c2ccc3c(c2)OCCO3)C(c2ccccc2)C1(F)F (stereo unspecified) | inconclusive: 87%
79 | O=C(NNc1cc(Br)c(O)c(Br)c1)c1ccccc1 | inactive: 95%
80 | CC(=O)Nc1ccc(NC(=O)C2CC(=O)Nc3nc4ccccc4n32)cc1 (stereo unspecified) | inconclusive: 96.4%
81 | Cc1onc(-c2c(F)cccc2Cl)c1C(=O)OCC(=O)Nc1c(C)n(C)n(-c2ccccc2)c1=O | inactive: 98.1%
82 | O=c1ccc(Cl)n[nH]1 | inconclusive: 97.1%
83 | O=C(CNc1n[nH]c(=O)[nH]c1=O)N/N=C/C1CC=CCC1 (stereo unspecified) | inconclusive: 107%
84 | COC(=O)C1=C(C)Nc2c(c(=O)n(C)c(=O)n2C)C1c1cccc(O)c1 (stereo unspecified) | inconclusive: 68%
85 | O=C(N/N=C/c1ccc(OC(F)F)cc1OC(F)F)c1cccc(S(=O)(=O)N2CCOCC2)c1 | inconclusive: 102%
86 | COc1cccc(/C=N/NC(=O)CNC(=O)CCc2ccccc2)c1O | inconclusive: 92.7%
87 | Cc1ccc(C2(c3noc(CN4CCC(c5ccncc5)CC4)n3)CCCC2)cc1 | inactive: 102%
88 | CC(C)N1C(=O)/C(=C\c2nc3ccccc3c(=O)[nH]2)c2ccccc21 | inactive: 92.5%
89 | CC12CCC(C/C1=N/O)C2(C)CBr (stereo unspecified) | inconclusive: 58.8%
90 | CC(=O)O[C@@H]1C[C@H]2C(C)=C[C@H]3OC(=O)[C@@H](C)[C@H]3C[C@H]2[C@]1(C)O | inconclusive: 114%
91 | CCNc1ccc(C(=O)NN=C2CCCC2)cc1[N+](=O)[O-] | inactive: 97.2%
